Experimental findings from PMC10327518 (Journal of Enzyme Inhibition and Medicinal Chemistry, 2023) are described below.

For the assay, the system named is Aβ25-35-induced PC12 cell injury.

With `COc1cc2c(cc1OC)C(=O)C(CC1CCN(Cc3ccccc3)CC1)C2` (stereo not shown) [Donepezil, donepezil, reference compound], the “Neuroprotective effect (in words)” value is reported as “potent neuroprotective effect”.
